Source: the supplement of paper PMC11732987, “Enantioselective OTUD7B fragment discovery through chemoproteomics screening and high-throughput optimisation” (Communications Chemistry, 2025)
This is one part of the list. The data scatter; read single values as rough.

The chains behind the UniProt entries cited, without tags or fusion partners. Where a name states a change or a piece, a line headed by the entry shows the natural chain unless it says otherwise. Residues count along the entry.
UniProt Q9UK61, 945-964: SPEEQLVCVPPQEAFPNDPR
UniProt O60343: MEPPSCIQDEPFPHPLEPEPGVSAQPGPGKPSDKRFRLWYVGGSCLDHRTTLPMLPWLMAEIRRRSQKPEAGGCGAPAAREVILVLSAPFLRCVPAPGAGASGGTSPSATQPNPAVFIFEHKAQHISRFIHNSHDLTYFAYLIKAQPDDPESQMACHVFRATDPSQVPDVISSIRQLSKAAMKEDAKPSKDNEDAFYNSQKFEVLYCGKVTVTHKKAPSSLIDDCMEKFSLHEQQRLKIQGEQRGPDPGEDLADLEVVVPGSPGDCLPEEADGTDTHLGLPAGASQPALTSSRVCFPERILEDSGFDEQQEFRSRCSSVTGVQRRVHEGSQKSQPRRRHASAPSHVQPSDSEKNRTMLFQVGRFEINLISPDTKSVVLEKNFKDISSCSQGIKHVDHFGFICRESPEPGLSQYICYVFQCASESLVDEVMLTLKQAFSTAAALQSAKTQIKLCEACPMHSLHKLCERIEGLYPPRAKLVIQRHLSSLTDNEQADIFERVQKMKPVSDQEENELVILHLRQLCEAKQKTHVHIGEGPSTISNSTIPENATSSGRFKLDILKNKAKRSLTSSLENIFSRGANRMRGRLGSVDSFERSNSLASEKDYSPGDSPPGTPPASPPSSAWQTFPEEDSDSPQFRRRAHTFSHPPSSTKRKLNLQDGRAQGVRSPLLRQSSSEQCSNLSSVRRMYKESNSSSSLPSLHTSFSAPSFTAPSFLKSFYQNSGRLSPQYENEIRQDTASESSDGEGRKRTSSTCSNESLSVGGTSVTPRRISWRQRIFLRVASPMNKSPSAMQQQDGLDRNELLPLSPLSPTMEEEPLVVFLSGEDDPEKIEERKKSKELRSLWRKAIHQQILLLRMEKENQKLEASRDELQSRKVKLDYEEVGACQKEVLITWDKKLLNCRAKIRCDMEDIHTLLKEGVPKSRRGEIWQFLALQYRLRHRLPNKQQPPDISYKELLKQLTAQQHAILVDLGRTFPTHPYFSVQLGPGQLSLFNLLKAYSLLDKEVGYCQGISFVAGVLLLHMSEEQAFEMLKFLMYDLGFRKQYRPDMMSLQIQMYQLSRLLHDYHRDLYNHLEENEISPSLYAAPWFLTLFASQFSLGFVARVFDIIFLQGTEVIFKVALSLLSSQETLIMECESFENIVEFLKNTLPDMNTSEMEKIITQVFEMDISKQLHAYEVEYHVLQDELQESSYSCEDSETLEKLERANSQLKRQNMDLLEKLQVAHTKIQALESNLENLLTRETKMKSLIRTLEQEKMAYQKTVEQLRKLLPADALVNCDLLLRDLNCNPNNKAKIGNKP
UniProt Q15170: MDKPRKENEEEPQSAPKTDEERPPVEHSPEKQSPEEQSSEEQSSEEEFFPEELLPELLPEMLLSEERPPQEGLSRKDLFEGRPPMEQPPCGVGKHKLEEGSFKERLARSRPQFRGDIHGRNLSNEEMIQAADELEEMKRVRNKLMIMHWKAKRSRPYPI
UniProt Q9C0D5: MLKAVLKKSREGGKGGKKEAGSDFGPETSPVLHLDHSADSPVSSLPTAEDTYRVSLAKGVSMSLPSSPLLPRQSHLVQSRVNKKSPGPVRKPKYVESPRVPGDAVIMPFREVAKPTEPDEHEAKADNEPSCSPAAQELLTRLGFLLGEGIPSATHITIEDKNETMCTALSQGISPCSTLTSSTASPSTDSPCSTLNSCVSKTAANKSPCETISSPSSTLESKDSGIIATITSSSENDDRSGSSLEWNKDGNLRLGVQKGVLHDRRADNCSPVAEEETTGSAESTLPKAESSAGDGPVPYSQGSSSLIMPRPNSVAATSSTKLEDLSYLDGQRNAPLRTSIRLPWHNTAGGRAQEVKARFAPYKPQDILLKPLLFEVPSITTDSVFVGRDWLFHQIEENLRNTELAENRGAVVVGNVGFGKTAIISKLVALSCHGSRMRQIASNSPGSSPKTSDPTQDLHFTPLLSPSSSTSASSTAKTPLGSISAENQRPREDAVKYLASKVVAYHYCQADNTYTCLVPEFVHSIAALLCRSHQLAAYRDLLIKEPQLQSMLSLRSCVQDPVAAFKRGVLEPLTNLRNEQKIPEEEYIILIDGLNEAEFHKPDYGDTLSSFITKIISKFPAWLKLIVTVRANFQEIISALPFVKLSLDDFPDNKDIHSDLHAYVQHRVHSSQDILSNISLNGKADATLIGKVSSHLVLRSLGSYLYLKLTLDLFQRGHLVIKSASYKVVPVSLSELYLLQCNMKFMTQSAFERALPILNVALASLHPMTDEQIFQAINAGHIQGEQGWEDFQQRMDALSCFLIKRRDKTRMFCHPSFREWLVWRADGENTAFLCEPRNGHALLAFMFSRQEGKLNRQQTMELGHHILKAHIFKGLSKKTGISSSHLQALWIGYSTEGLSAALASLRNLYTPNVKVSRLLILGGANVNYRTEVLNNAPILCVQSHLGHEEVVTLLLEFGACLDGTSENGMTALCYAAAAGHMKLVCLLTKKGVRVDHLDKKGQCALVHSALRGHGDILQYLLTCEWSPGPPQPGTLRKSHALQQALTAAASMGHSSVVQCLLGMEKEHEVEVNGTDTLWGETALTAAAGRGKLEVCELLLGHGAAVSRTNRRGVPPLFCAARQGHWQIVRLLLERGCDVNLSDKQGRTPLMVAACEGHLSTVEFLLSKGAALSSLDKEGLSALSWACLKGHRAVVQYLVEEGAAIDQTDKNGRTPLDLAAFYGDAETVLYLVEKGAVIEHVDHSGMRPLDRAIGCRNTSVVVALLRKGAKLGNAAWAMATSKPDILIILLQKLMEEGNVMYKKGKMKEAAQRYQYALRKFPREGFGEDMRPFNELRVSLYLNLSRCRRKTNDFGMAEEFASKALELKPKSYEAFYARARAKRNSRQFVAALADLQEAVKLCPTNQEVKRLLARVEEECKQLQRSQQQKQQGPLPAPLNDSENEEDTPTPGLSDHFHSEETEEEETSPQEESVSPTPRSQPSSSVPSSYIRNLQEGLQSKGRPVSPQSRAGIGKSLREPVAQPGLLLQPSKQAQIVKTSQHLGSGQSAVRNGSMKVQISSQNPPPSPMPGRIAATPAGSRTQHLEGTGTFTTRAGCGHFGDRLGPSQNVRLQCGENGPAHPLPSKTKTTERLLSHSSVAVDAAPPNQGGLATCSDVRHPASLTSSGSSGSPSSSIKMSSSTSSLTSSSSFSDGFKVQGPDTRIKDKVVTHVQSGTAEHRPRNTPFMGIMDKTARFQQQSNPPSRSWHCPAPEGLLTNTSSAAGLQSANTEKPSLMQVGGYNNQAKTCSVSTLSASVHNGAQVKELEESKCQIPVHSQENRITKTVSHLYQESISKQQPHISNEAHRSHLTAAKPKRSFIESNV
UniProt Q13395: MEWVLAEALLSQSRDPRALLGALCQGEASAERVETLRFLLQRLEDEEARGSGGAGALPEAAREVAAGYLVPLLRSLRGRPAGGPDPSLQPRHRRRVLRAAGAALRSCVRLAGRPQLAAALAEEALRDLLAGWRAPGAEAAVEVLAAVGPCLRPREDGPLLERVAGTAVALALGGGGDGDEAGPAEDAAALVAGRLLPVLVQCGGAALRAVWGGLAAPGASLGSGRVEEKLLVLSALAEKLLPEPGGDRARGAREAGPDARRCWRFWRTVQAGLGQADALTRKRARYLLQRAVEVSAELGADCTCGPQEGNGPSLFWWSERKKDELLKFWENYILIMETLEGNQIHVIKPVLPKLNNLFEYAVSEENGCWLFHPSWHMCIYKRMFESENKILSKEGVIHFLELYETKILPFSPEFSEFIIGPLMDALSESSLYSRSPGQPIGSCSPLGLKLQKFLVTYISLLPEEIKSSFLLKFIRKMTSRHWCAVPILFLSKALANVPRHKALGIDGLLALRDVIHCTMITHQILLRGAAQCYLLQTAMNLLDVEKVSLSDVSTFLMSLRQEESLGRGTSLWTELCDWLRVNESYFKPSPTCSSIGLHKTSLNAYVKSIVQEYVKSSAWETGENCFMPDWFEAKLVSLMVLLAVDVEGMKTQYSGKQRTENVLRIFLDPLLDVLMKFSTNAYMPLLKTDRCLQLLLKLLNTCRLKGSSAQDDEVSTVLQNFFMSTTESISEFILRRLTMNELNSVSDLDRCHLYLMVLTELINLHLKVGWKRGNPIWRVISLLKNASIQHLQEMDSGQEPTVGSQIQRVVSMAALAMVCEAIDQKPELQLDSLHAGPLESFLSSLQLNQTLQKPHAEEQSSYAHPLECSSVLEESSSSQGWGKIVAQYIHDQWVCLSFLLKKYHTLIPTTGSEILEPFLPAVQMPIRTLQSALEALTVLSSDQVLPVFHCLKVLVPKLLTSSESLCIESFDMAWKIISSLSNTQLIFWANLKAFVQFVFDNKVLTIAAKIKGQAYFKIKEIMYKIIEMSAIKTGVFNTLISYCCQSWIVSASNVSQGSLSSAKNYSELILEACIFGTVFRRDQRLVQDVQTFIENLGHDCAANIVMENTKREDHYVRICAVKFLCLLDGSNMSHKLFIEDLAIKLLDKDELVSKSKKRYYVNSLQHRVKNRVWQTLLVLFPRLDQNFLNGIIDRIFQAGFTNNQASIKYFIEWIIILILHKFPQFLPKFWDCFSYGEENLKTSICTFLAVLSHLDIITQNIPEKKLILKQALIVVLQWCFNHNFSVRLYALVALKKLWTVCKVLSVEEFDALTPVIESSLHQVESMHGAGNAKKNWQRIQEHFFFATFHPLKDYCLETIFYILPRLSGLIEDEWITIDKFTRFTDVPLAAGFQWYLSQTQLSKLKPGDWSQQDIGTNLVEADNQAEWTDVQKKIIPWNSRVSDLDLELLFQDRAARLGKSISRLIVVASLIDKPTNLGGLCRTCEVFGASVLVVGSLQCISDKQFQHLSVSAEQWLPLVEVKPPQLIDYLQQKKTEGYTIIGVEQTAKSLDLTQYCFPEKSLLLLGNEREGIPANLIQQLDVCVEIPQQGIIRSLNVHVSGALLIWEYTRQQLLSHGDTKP
UniProt O95359, 2566-2590: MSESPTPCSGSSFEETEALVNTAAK
UniProt O95359, 2201-2222: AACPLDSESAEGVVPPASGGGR
UniProt Q01664, 23-42: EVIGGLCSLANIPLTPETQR
UniProt Q96C24: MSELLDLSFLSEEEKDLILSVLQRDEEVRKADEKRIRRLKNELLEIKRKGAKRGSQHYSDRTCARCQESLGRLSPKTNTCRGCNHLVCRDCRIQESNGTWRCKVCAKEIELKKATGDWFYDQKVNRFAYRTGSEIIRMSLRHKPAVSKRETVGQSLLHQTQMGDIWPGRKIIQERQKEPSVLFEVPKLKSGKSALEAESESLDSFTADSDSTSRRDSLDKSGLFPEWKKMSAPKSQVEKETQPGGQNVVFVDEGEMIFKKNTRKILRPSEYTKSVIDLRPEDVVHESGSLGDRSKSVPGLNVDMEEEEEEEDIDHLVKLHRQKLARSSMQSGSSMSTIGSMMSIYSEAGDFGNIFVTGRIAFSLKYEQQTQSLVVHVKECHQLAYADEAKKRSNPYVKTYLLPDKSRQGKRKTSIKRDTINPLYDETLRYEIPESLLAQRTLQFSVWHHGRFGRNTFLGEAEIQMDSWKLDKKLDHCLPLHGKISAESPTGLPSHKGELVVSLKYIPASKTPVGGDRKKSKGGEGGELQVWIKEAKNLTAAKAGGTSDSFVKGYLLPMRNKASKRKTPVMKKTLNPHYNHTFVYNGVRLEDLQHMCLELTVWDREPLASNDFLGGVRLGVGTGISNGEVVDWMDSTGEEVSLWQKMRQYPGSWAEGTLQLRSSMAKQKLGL
UniProt Q53T94, 181-201: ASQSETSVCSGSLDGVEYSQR
UniProt Q9C0B7, 427-452: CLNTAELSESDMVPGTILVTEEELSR
UniProt Q9Y4P3: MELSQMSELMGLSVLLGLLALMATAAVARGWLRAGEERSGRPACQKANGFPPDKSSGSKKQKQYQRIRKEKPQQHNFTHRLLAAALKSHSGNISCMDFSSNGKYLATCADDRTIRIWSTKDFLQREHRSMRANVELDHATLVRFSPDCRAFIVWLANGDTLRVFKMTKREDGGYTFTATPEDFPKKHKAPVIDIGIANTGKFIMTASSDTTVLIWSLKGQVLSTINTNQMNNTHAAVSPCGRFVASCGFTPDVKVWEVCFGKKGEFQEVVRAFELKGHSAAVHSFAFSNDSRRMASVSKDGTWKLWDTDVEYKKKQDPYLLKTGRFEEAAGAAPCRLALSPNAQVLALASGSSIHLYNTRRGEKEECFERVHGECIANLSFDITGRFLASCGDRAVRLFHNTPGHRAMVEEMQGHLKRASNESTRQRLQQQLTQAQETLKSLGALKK
UniProt Q9NVG8: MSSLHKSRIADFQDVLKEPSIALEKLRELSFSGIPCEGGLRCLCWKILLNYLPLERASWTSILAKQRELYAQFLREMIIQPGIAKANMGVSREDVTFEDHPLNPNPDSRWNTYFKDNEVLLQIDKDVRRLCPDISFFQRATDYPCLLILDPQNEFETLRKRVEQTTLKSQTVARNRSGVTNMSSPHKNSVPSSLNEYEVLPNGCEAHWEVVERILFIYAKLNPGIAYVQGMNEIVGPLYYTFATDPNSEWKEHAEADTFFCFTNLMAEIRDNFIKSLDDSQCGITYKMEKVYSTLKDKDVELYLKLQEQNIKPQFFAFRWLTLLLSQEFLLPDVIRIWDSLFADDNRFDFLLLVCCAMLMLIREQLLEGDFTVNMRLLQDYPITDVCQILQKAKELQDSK

Experiments:
[1] = compound: ClCC(=O)N[C@@H]1CCCc2ccccc12; assay: log2 mean competition ratio of IA-DTB cysteine labelling (DMSO/compound) (log2 ratio); higher = stronger cysteine engagement by compound; details: treatment time: 4 h, cell line lysate: HEK293T
Description: (§1)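 IA-DTB competitive cysteine chemoproteomics in HEK293T RIPA lysate. Lysates were treated with compound 29 or 30 at 50 or 200 µM for 4 h, then IA-DTB (500 µM, 1 h), trypsin-digested, NeutrAvidin-enriched and analysed by diaPASEF. Competition ratio = intensity DMSO / intensity compound (n=4 treated, n=64 DMSO); binding: mean log2 CR ≥ 1 and p ≤ 0.05 plus QC filters. Target is the cysteine site.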

[2] = compound: ClCC(=O)N[C@H]1CCCc2ccccc12; assay: as above; details: treatment time: 4 h, cell line lysate: HEK293T
Description: as §1

| Target | log2 mean competition ratio ([1]; 50 µM) | log2 mean competition ratio ([1]; 200 µM) | log2 mean competition ratio ([2]; 50 µM) | log2 mean competition ratio ([2]; 200 µM) |
| --- | --- | --- | --- | --- |
| TICRR C174 (UniProt Q7Z2Z1) | -0.362 | 0.305 | 0.219 | 0.209 |
| TCF20 C1328 (UniProt Q9UGU0) | 0.113 | -0.0323 | -0.235 | -0.176 |
| TASOR C195 (UniProt Q9UK61) | 0.326 | -0.235 | 0.224 | -0.118 |
| TBC1D4 C1286 (UniProt O60343) | -0.1 | 0.165 | -0.106 | 0.253 |
| TARS2 C603 (UniProt Q9BW92) | 0.205 | 0.0594 | -0.185 | -0.041 |
| TCP1 C147 (UniProt P17987) | 0.176 | -0.204 | 0.293 | -0.18 |
| TCEAL1 C90 (UniProt Q15170) | -0.207 | -0.0671 | -0.155 | -0.0234 |
| TBC1D15 C197 (UniProt Q8TC07) | -0.0408 | 0.0876 | 0.362 | 0.441 |
| TAB3 C590 (UniProt Q8N5C8) | 0.242 | 0.0219 | -0.102 | -0.289 |
| TAF2 C303 (UniProt Q6P1X5) | 0.0759 | -0.227 | -0.369 | -0.171 |
| TBCD C457 | 0.0788 | -0.0271 | -0.0092 | 0.0093 |
| TANC1 C1400 (UniProt Q9C0D5) | 0.0379 | 0.35 | 0.141 | 0.319 |
| TDRKH C160 (UniProt Q9Y2W6) | 0.745 | 0.464 | 0.116 | 0.279 |
| TAF2 C767 (UniProt Q6P1X5) | 0.189 | -0.451 | 0.0744 | -0.546 |
| TEDC2 C417 (UniProt Q7L2K0) | -0.0596 | 0.315 | -0.098 | 0.257 |
| TBC1D4 C885 (UniProt O60343) | -0.23 | -0.169 | -0.201 | -0.0919 |
| TARBP1 C24 (UniProt Q13395) | -0.104 | 0.322 | -0.358 | 0.276 |
| TBC1D4 C388 (UniProt O60343) | -0.0734 | -0.0837 | 0.246 | -0.023 |
| TASOR C952 (UniProt Q9UK61) | -0.016 | -0.0742 | 0.0473 | -0.234 |
| TACC2 C2573 (UniProt O95359) | -0.384 | -0.548 | 0.51 | -0.098 |
| TAF6L C230 (UniProt Q9Y6J9) | 0.25 | 0.352 | -0.752 | 0.0704 |
| TAF6 C460 (UniProt P49848) | 0.491 | 0.0673 | 0.0964 | 0.16 |
| TACC2 C2203 (UniProt O95359) | 0.2 | -0.296 | 0.855 | -0.267 |
| TFAP2C C209 | -0.391 | 0.0715 | -0.279 | 0.292 |
| TASOR2 C1044 (UniProt Q5VWN6) | 0.279 | 0.687 | -0.26 | 0.337 |
| TFAP4 C29 (UniProt Q01664) | 0.332 | 0.181 | 0.0151 | -0.0983 |
| TBC1D1 C336 (UniProt Q86TI0) | 0.221 | 0.326 | -0.224 | 0.213 |

| Target | log2 mean competition ratio ([1]; 50 µM) | log2 mean competition ratio ([1]; 200 µM) | log2 mean competition ratio ([2]; 50 µM) | log2 mean competition ratio ([2]; 200 µM) |
| --- | --- | --- | --- | --- |
| TBPL1 C68 (UniProt P62380) | 0.223 | -0.328 | -0.146 | -0.0436 |
| TECPR1 C462 (UniProt Q7Z6L1) | -0.456 | 0.0831 | -0.125 | 0.0767 |
| THOC1 C396 (UniProt Q96FV9) | 0.0853 | -0.252 | 0.206 | -0.154 |
| TAOK2 C1103 (UniProt Q9UL54) | 0.1 | 0.00692 | 0.26 | -0.0744 |
| TANC1 C1594 (UniProt Q9C0D5) | 0.181 | 0.184 | 0.248 | 0.219 |
| SZT2 C2453 (UniProt Q5T011) |  |  | -0.11 | 0.222 |
| TASP1 C351 (UniProt Q9H6P5) | 0.102 | -0.0409 | -0.214 | -0.267 |
| TASOR C1245 (UniProt Q9UK61) | -0.175 | 0.082 | -0.191 | -0.147 |
| TANC1 C1611 (UniProt Q9C0D5) |  |  | -0.0747 | -0.0326 |
| SYTL4 C477 (UniProt Q96C24) |  |  |  | 0.2 |
| TAF1B C189 (UniProt Q53T94) |  |  | 0.203 | -0.141 |
| TFB2M C383 (UniProt Q9H5Q4) |  |  | 0.173 | 0.0593 |
| TET2 C501 (UniProt Q6N021) |  |  | -0.134 | -0.0521 |
| TACC3 C206 | 0.0234 | 0.103 | 0.244 | 0.375 |
| TICRR C1626 (UniProt Q7Z2Z1) |  |  | 0.253 | 0.229 |
| TCP1 C236 (UniProt P17987) | 0.393 | -0.112 | 0.0075 | -0.0504 |
| TARBP1 C1556 (UniProt Q13395) |  |  | -0.325 | -0.174 |
| TANGO6 C427 (UniProt Q9C0B7) | -0.161 | -0.19 | -0.0156 | -0.124 |
| THOC6 C279 (UniProt Q86W42) |  | -0.117 | -0.141 | -0.0421 |
| TACC3 C426 |  |  | -0.0961 | 0.0496 |
| TEX264 C165 (UniProt Q9Y6I9) |  |  | 0.289 | 0.266 |
| TBC1D7 C43 (UniProt Q9P0N9) | 0.288 | 0.243 | 0.0787 | 0.0641 |
| TACC1 C78 (UniProt O75410) |  |  | 0.0663 | -0.0999 |
| THADA C1354 (UniProt Q6YHU6) |  |  | -0.0632 | 0.00716 |
| TANGO6 C286 (UniProt Q9C0B7) |  |  | -0.315 | 0.255 |
| TBC1D4 C316 (UniProt O60343) |  |  | 0.0718 | 0.207 |
| TACC3 C749 |  |  | 0.601 | 0.0652 |

| Target | log2 mean competition ratio ([1]; 50 µM) | log2 mean competition ratio ([1]; 200 µM) | log2 mean competition ratio ([2]; 50 µM) | log2 mean competition ratio ([2]; 200 µM) |
| --- | --- | --- | --- | --- |
| TBC1D5 C706 (UniProt Q92609) |  |  | 0.0556 | 0.0186 |
| TARS1 C630 (UniProt P26639) |  |  | 0.0378 | 0.297 |
| TBC1D32 C825 |  |  | -0.19 | -0.126 |
| THOC2 C1152 | -0.039 | 0.156 | -0.0965 | 0.0931 |
| TBC1D2B C554 (UniProt Q9UPU7) |  |  | -0.351 | -0.0152 |
| THUMPD2 C161 (UniProt Q9BTF0) |  |  | -0.275 | 0.0197 |
| TBX3 C404 (UniProt O15119) |  |  | -0.0948 | 0.374 |
| TBCE C371 (UniProt Q15813) | -0.0325 | -0.262 | -0.257 | -0.261 |
| TBC1D4 C225 (UniProt O60343) | -0.19 | 0.187 | -0.167 | 0.113 |
| TDP1 C48 (UniProt Q9NUW8) |  |  | 0.158 | 0.214 |
| THAP4 C229 (UniProt Q8WY91) | -0.0451 | 0.287 | 0.6 | 0.416 |
| TEPSIN C493 | -0.114 | -0.0811 | 0.0576 | -0.0371 |
| TCEA2 C269 (UniProt Q15560) | -0.14 | 0.615 | -0.408 | 0.239 |
| TACC1 C514 (UniProt O75410) |  |  | -0.068 | 0.109 |
| TBX2 C311 |  |  | 0.0831 | 0.0727 |
| TAX1BP1 C525 (UniProt Q86VP1) |  |  | 0.166 | 0.124 |
| TDP1 C135 (UniProt Q9NUW8) |  |  | 0.346 | -0.224 |
| TET2 C1811 (UniProt Q6N021) |  |  | 0.243 | -0.0769 |
| TBL2 C108 (UniProt Q9Y4P3) |  |  | 0.171 | -0.0196 |
| TARBP1 C443 (UniProt Q13395) |  |  | -0.166 | -0.196 |
| TBCE C152 (UniProt Q15813) |  |  | -0.202 | 0.425 |
| TASOR C761 (UniProt Q9UK61) |  |  | -0.505 | 0.362 |
| TCF25 C367 (UniProt Q9BQ70) |  |  | -0.416 | 0.0339 |
| TBC1D22B C144 (UniProt Q9NU19) |  |  | 0.0272 | 0.109 |
| TAB3 C635 (UniProt Q8N5C8) |  |  | -0.168 | 0.459 |
| TDRD3 C98 (UniProt Q9H7E2) |  |  | 0.589 | 0.167 |
| TEPSIN C295 |  |  | 0.228 | 0.255 |

| Target | log2 mean competition ratio ([1]; 50 µM) | log2 mean competition ratio ([1]; 200 µM) | log2 mean competition ratio ([2]; 50 µM) | log2 mean competition ratio ([2]; 200 µM) |
| --- | --- | --- | --- | --- |
| TASOR C690 (UniProt Q9UK61) |  |  | 0.0616 | 0.193 |
| TBL2 C391 (UniProt Q9Y4P3) |  |  | 0.0854 | -0.142 |
| THOC2 C1111 |  |  | -0.416 | -0.383 |
| TBC1D13 C36 (UniProt Q9NVG8) |  |  | 0.145 | -0.192 |
| TBC1D9B C308 (UniProt Q66K14) |  |  | 0.00889 | 0.0281 |
| TDRD7 C600 (UniProt Q8NHU6) |  |  | 0.0116 | -0.519 |
| TATDN2 C602 (UniProt Q93075) |  |  | -0.171 | -0.254 |
| TEC C495 (UniProt P42680) |  |  | -0.355 | 0.21 |
| THOC5 C208 (UniProt Q13769) |  |  | -0.116 | -0.128 |
| SYT2 C275 |  |  | -0.131 | 0.195 |
| TAF11 C173 (UniProt Q15544) |  |  | -0.159 | -0.146 |
| TAX1BP1 C350 (UniProt Q86VP1) |  |  | -0.17 | 0.144 |
| TBC1D9B C289 (UniProt Q66K14) |  |  | 0.16 | 0.0613 |
| TEX264 C68 (UniProt Q9Y6I9) |  |  | -0.626 | -0.125 |
| SZT2 C1152 (UniProt Q5T011) |  |  | -0.314 | 0.0214 |
| TBC1D24 C161 (UniProt Q9ULP9) |  |  | -0.0379 | 0.0991 |
| TAF3 C431 (UniProt Q5VWG9) |  |  | -0.28 | 0.175 |
| TBCC C6 (UniProt Q15814) |  |  | -0.0876 | -0.0251 |
| TBL2 C335 (UniProt Q9Y4P3) |  |  | 0.255 | 0.249 |
| TDP2 C6 (UniProt O95551) |  |  | -0.0675 | 0.174 |
| TEDC1 C461 (UniProt Q86SX3) |  |  | -0.188 | 0.156 |
| TBC1D13 C282 (UniProt Q9NVG8) |  |  | -0.0913 | -0.15 |
| TAF4B C719 (UniProt Q92750) |  |  | 0.484 | 0.305 |
| THOP1 C246 (UniProt P52888) |  |  | -0.136 | 0.318 |
